PubChem BioAssay AID1259308, NCATS – 2017
Shown is a random part of about 59,000 reagents tested. About 1,510 of them (2.6%) count as active. 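Calls use total luciferase alone and ignore viability, so some active siRNAs may act by altering cell number.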 Reagents against one gene are numbered here. Further read-outs or replicates are left out here.

Test: 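Knock-downs that increase output of a recombinant reporter protein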 (primary screen)
Cells: human HEK293 embryonic kidney cells stably expressing firefly luciferase (HEK-CMV-Luc2-Hygro)
Reagent: single siRNA against human genes, 0.8 pmol siRNA per well
Time to read-out: 72 h
Read-out: 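Luciferase light (ONE-Glo) measured on one replicate plate set and viability (CellTiter-Glo) on the other, scaled to a negative control siRNA, with robust z-scores and luciferase per cell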
Direction: total luciferase, z-score: higher = more reporter protein produced
Active means: 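An siRNA counts as active if its total luciferase robust z-score exceeds 3; genes with two or more such siRNAs out of three were retested with fresh siRNAs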
Calls: active = raised luciferase; inactive = no rise

TLL2 #1 — total luciferase, z-score: -2.15; activity call: inactive
TLL2 #2 — total luciferase, z-score: -0.288; activity call: inactive
TLL2 #3 — total luciferase, z-score: 1.88; activity call: inactive
CD1C #1 — total luciferase, z-score: -0.307; activity call: inactive
CD1C #2 — total luciferase, z-score: -1.03; activity call: inactive
CD1C #3 — total luciferase, z-score: -0.725; activity call: inactive
EPHA10 #1 — total luciferase, z-score: -0.266; activity call: inactive
EPHA10 #2 — total luciferase, z-score: -0.992; activity call: inactive
EPHA10 #3 — total luciferase, z-score: -0.0246; activity call: inactive
CTHRC1 #1 — total luciferase, z-score: 3.25; activity call: active
CTHRC1 #2 — total luciferase, z-score: -1.51; activity call: inactive
CTHRC1 #3 — total luciferase, z-score: 0.417; activity call: inactive
SPMIP5 #1 — total luciferase, z-score: -0.147; activity call: inactive
SPMIP5 #2 — total luciferase, z-score: -0.623; activity call: inactive
SPMIP5 #3 — total luciferase, z-score: -1.94; activity call: inactive
RABL2A #1 — total luciferase, z-score: -0.593; activity call: inactive
RABL2A #2 — total luciferase, z-score: 0.668; activity call: inactive
RABL2A #3 — total luciferase, z-score: 2.78; activity call: inactive
OR51B4 #1 — total luciferase, z-score: -1.88; activity call: inactive
OR51B4 #2 — total luciferase, z-score: -0.237; activity call: inactive
OR51B4 #3 — total luciferase, z-score: 1.56; activity call: inactive

2 of these entries, reformatted:
gene symbol	siRNA no.	total luciferase, z-score	activity call
EPHA10	1	-0.266	inactive
EPHA10	2	-0.992	inactive
